Results: PMC5113954, “Characterization of the Sucrose Phosphate Phosphatase (SPP) Isoforms from Arabidopsis thaliana and Role of the S6PPc Domain in Dimerization” (PLoS ONE, 2016)
No constants are given. Whether binding was seen depends on the method and setting. For some assays here: In cells and extracts the contact can be indirect. Some binding calls cover weakened binding; strength is not graded here. For some assays here: Where a sequence is shown, tags or fusion partners need not be part of it.

By UniProt entry, the sequences of proteins in these tests, tags left out.
UniProt Q9SJ66: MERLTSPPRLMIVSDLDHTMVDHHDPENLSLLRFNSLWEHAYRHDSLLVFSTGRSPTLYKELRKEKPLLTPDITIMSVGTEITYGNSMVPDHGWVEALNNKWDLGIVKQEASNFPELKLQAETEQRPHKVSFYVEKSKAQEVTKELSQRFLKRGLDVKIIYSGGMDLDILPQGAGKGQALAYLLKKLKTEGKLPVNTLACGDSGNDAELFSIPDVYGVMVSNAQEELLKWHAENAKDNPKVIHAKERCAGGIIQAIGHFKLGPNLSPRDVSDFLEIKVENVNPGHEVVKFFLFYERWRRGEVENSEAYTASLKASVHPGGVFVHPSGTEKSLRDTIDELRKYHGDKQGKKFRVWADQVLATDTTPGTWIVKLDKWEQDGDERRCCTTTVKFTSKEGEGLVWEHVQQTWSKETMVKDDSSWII

Key:
[1] = molecular target: Arabidopsis SPP2 fused to the N-terminal or the C-terminal part of YFP (YFN-SPP2 and YFC-SPP2) for BiFC (Arabidopsis thaliana) (UniProt Q9SJ66); assay: split reporter; BiFC with YFN and YFC fusions (pYFN43, pYFC43) in agroinfiltrated Nicotiana benthamiana leaf cells; confocal microscopy, excitation 514 nm
[2] = molecular target: Sucrose-phosphate phosphatase of Synechocystis sp. PCC 6803, His6-SynSPP (pQE-80L) (Synechocystis sp. PCC 6803) (UniProt P74325); assay: SEC; gel filtration of the purified His-tagged proteins; eluted fractions immunoblotted with anti-His antibodies (Fig 7, S1 Fig); both purified

Molecule: Arabidopsis SPP2 fused to the N-terminal or the C-terminal part of YFP (YFN-SPP2 and YFC-SPP2) for BiFC (from UniProt Q9SJ66 1-422) (enzyme)
- binding [1]: binds

B1: Sucrose-phosphate phosphatase of Synechocystis sp. PCC 6803, His6-SynSPP (pQE-80L) (enzyme, UniProt P74325 1-244)
chain: MRQLLLISDLDNTWVGDQQALEHLQEYLGDRRGNFYLAYATGRSYHSARELQKQVGLMEPDYWLTAVGSEIYHPEGLDQHWADYLSEHWQRDILQAIADGFEALKPQSPLEQNPWKISYHLDPQACPTVIDQLTEMLKETGIPVQVIFSSGKDVDLLPQRSNKGNATQYLQQHLAMEPSQTLVCGDSGNDIGLFETSARGVIVRNAQPELLHWYDQWGDSRHYRAQSSHAGAILEAIAHFDFLS
- binding [2]: no binding
